Values of other authors, collected in patent US6087346A, “Sigma receptor ligands and the use thereof” (Cambridge Neuroscience, Inc., priority 1996, dated 2000).
At least one compound was matched to its structure with a doubt left.

Tested on: rat cortex
Details: Roth et al.; cited from earlier work

## Cc1ccccc1NC(=N)Nc1ccccc1C [DTG, di-2-tolyl-guanidine]
  anticonvulsant activity: anticonvulsant
